Results reported in the supplement of paper PMC10849652.
The other results are listed elsewhere or left out.

Protein sequences, listed by entry. Tags and fused reporters are not part of them. Lines headed by an entry give the natural chain unless they say otherwise; changes in a name come on top.
UniProt Q9HCJ1: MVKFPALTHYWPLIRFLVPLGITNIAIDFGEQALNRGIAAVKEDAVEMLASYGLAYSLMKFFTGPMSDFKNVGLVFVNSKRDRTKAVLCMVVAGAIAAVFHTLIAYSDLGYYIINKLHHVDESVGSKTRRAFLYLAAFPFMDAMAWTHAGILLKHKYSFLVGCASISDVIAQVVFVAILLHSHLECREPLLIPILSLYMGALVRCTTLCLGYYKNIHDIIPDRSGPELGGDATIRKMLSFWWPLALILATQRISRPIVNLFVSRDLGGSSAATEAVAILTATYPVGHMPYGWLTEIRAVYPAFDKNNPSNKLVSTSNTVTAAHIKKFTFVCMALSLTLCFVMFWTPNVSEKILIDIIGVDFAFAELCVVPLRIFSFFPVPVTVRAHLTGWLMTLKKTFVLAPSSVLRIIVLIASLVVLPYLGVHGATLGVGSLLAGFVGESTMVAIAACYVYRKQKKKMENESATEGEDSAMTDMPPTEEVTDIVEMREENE
UniProt A6QL64: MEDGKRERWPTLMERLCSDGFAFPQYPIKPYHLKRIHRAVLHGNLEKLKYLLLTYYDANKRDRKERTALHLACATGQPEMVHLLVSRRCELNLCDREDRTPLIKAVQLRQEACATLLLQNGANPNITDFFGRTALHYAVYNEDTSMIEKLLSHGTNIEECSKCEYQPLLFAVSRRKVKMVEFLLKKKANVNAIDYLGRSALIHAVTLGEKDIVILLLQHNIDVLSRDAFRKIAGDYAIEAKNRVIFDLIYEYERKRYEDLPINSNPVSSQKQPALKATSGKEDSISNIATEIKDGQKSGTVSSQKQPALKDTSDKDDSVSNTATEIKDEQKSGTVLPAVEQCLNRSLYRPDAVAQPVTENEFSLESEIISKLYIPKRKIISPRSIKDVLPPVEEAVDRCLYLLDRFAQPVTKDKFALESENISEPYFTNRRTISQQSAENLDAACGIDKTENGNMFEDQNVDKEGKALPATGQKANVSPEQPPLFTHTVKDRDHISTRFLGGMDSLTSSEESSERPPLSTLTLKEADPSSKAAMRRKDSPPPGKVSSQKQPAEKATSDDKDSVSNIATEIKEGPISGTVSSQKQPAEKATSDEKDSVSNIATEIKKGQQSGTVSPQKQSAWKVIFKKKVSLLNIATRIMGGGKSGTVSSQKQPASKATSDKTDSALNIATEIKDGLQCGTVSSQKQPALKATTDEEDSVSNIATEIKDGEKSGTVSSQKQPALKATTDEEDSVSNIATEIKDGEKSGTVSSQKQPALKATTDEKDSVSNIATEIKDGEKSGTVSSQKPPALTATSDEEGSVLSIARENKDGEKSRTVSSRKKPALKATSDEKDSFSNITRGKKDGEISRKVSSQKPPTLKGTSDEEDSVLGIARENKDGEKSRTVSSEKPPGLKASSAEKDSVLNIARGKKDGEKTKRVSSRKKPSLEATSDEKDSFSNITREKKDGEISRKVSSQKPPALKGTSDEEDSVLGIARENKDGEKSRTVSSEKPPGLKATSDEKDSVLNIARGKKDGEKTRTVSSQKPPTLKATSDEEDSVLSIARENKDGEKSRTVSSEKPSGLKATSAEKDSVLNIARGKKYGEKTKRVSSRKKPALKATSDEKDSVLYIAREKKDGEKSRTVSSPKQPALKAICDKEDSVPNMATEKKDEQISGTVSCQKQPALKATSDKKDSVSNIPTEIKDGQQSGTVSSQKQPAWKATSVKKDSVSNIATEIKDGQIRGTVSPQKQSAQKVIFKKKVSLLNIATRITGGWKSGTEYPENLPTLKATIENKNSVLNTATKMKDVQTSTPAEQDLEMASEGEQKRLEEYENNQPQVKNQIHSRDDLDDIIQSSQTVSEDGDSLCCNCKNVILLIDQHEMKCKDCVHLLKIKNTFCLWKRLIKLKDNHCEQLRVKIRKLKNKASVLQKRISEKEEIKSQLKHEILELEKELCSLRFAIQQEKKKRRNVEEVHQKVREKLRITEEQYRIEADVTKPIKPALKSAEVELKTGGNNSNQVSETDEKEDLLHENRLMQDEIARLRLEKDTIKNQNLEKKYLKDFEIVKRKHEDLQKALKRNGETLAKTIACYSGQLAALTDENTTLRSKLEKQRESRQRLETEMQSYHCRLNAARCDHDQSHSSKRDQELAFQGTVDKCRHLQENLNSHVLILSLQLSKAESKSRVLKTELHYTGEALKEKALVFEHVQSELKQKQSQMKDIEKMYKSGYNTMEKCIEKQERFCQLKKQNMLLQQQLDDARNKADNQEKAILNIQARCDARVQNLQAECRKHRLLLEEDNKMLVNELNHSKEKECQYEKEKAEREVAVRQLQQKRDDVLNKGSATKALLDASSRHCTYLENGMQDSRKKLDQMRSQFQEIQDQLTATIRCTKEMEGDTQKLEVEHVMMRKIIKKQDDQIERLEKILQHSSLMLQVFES
UniProt Q10567: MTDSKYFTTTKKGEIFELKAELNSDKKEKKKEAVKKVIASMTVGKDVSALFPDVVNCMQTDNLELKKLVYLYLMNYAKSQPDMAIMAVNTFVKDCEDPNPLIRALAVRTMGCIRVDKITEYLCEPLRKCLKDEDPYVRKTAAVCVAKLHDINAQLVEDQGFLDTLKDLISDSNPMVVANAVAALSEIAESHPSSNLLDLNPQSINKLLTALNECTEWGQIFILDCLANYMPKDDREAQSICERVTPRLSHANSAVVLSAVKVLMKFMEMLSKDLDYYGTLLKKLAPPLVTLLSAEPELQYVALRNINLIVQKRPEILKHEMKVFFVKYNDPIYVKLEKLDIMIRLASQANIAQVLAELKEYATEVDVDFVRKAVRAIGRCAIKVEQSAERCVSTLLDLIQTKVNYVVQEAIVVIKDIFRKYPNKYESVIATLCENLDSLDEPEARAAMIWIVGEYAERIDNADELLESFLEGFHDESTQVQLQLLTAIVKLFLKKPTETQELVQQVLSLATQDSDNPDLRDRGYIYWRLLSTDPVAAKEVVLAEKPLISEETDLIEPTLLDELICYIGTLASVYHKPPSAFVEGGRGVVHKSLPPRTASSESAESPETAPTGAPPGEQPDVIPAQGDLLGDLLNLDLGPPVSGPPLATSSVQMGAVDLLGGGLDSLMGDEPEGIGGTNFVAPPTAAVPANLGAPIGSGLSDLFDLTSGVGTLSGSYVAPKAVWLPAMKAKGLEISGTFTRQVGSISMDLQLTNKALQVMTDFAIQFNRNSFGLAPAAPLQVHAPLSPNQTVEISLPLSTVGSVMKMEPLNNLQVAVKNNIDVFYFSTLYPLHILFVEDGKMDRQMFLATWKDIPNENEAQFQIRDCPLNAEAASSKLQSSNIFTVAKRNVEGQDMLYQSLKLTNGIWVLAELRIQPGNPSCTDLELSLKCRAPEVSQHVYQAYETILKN
UniProt Q8N6S4: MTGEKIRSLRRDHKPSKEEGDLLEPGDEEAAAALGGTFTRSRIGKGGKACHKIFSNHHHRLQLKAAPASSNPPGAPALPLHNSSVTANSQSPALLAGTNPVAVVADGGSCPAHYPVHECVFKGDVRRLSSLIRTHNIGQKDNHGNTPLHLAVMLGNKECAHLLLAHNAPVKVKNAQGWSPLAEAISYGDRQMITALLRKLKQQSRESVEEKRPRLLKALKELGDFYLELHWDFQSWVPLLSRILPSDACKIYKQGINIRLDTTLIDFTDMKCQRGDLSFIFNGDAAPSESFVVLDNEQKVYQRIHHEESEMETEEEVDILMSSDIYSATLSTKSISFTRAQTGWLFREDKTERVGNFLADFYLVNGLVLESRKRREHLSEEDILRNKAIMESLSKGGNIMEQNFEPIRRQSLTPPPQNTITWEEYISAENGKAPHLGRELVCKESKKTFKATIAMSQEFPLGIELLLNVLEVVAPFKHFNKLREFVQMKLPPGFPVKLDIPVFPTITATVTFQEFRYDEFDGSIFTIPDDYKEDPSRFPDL
UniProt Q5T5U3: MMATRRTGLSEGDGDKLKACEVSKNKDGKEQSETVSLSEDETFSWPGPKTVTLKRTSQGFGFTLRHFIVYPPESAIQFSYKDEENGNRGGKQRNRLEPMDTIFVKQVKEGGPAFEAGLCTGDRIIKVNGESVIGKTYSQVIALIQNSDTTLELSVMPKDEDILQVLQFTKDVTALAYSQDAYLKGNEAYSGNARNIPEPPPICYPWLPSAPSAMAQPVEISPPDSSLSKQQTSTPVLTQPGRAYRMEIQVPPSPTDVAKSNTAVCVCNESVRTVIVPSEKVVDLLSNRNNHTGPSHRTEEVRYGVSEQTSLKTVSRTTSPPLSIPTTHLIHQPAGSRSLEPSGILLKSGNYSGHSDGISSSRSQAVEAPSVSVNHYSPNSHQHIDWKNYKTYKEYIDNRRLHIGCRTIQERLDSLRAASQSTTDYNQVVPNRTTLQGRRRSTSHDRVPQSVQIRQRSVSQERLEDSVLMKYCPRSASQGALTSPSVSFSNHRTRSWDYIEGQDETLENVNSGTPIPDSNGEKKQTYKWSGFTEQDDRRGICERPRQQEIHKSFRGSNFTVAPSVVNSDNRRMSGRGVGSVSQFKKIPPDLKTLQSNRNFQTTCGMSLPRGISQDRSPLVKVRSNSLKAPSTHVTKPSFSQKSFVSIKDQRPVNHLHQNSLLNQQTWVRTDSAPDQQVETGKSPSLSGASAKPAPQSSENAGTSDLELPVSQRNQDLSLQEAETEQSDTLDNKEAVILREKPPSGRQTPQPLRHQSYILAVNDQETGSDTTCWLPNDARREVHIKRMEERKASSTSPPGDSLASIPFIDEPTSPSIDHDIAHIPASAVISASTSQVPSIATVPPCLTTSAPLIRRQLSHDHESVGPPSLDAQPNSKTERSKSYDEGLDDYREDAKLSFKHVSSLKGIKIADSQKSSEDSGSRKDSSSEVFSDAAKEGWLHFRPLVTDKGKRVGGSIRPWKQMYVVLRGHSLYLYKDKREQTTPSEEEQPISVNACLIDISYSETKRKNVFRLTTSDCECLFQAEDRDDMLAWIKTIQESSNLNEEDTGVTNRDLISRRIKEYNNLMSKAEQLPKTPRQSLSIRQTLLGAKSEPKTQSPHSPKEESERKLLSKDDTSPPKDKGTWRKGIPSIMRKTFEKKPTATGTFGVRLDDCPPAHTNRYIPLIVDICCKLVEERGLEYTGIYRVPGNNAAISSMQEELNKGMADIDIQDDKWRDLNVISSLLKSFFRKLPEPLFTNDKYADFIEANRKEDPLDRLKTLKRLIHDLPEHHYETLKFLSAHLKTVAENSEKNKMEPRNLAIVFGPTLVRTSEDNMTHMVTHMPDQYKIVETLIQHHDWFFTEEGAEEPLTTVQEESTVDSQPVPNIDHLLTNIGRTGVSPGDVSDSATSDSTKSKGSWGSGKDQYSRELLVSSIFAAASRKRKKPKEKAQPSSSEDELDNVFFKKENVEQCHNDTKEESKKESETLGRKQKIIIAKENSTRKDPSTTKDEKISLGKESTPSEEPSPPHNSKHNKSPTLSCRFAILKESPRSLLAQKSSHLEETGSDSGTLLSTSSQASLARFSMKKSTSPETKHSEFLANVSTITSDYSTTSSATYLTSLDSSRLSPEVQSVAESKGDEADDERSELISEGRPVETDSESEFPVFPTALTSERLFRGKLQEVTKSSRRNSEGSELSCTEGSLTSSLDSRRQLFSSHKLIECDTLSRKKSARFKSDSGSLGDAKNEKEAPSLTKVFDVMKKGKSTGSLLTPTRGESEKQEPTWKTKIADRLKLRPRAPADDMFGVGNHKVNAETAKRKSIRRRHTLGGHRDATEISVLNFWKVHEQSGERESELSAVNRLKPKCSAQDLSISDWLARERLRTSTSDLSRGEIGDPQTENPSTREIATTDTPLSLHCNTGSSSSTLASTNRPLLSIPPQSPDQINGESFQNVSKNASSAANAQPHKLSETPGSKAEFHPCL
UniProt Q9Y6B7: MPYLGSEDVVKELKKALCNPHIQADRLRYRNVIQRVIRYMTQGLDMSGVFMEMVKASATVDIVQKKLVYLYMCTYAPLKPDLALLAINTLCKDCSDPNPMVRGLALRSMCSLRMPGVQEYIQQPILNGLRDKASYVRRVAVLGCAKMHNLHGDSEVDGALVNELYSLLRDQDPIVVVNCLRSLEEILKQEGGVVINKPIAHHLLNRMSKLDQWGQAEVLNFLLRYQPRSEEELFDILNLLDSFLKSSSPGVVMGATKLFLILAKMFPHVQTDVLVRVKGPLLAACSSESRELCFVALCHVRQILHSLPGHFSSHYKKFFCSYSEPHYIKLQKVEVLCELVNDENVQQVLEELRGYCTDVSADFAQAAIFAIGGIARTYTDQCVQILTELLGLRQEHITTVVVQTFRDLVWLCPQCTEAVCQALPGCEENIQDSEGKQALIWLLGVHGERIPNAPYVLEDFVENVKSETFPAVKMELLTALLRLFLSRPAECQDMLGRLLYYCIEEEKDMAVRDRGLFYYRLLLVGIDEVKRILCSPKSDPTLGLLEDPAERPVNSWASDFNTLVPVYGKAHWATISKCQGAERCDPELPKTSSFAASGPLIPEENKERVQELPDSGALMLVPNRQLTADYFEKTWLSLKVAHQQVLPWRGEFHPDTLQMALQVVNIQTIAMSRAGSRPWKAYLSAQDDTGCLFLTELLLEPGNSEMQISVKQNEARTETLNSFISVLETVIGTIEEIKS

Assays:
Experiment in all cases: log2 fold change, soluble protein after heating vs DMSO (PISA); higher = thermal stabilisation; K562 cells, 10 uM, 30 min; active = over 0.2 and 3.5 SD of the protein, either way, in both replicates (recomputed)
[1] = compound: NC(=O)Nc1cc(-c2cccc(F)c2)sc1C(=O)N[C@H]1CCCNC1
Outline: (§1)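 Quantification of soluble protein used TMTpro 16plex LC-MS/MS, with channel sums equalised. Samples were the supernatant after 21,000xg for 90 min of pooled aliquots from K562 cells (2×10^6 cells/mL) treated with 10 μM compound for 30 min, heated for 3 min over 48°C-58°C, and extracted in PBS with 0.5% NP-40 at 4°C. Values, from duplicates, describe thermal stability against control samples on a log2 fold-change scale.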

[2] = compound: NC1(c2ccc(-c3nc4ccn5c(=O)[nH]nc5c4cc3-c3ccccc3)cc2)CCC1
Outline: as §1

[3] = compound: NCC(=O)Nc1ccc(-n2nc(C(F)(F)F)cc2-c2ccc3c(ccc4ccccc43)c2)cc1
Outline: as §1

[4] = compound: Nc1ccccc1NC(=O)c1ccc(CNC(=O)OCc2cccnc2)cc1 [entinostat]
Outline: as §1

[5] = compound: O=C(O)c1ccc2c(c1)nc(Nc1cccc(Cl)c1)c1ccncc12 [silmitasertib]
Outline: as §1

[6] = compound: O=C1NC(=O)C(c2cnc3ccccn23)=C1c1cn2c3c(cc(F)cc13)CN(C(=O)N1CCCCC1)CC2
Outline: as §1

[7] = compound: O=C(CCCCCCNC(=O)c1cnc(N(c2ccccc2)c2ccccc2Cl)nc1)NO [citarinostat]
Outline: as §1

[8] = compound: c1cc(OCCN2CCCCC2)cc(-c2n[nH]c3ccc(-c4nnc[nH]4)cc23)c1
Outline: as §1

[9] = compound: NC(=O)c1cnc(N[C@@H]2CCCC[C@@H]2N)nc1Nc1cccc(-n2nccn2)c1
Outline: as §1

[10] = compound: O=C(CCCCCCC(=O)Nc1ccccc1)NO [vorinostat]
Outline: as §1

Measured: log2 fold change

ANKRD16 (UniProt Q6P6B7)
inactive: [1] -0.345 | [2] 0.228 | [3] 0.007 | [4] 0.105 | [5] 0.231 | [6] 0.042

ARHGAP5 (UniProt Q13017)
inactive: [7] 0.169 | [6] -0.005 | [8] -0.213

ANKH (UniProt Q9HCJ1)
inactive: [9] -0.227 | [10] -0.256 | [7] -0.314 | [8] -0.386

AP3M2 (UniProt P53677)
inactive: [2] 0.056 | [5] -0.017

ARAP1 (UniProt Q96P48)
inactive: [1] -0.08 | [2] 0.153 | [4] 0.09 | [10] 0.065 | [7] 0.032 | [5] 0.505 | [6] 0.288 | [8] -0.148

ARHGAP35 (UniProt Q9NRY4)
inactive: [9] -0.131 | [2] -0.039 | [3] -0.132 | [10] 0.148 | [7] 0.015 | [5] 0.18 | [6] 0.184 | [8] 0.031

ANXA2 (UniProt H0YMT9)
inactive: [6] -0.201

ARHGAP25 isoform 4 (UniProt P42331)
inactive: [9] 0.068 | [2] -0.181 | [3] -0.127 | [10] -0.099 | [7] 0.105 | [5] 0.213 | [6] 0.021 | [8] -0.049

AP5M1 (UniProt Q9H0R1)
inactive: [1] -0.105 | [2] 0.306 | [3] 0.036 | [4] -0.085 | [10] 0.188 | [7] -0.048 | [5] -0.169 | [6] 0.02 | [8] -0.03

ANKRD11 (UniProt Q6UB99)
inactive: [1] -0.306 | [2] -0.149 | [3] -0.051 | [4] -0.146 | [5] 0.205

ANKRD36 (UniProt A6QL64)
inactive: [1] -0.342 | [2] 0.217 | [3] -0.409 | [4] -0.135 | [10] -0.229 | [7] -0.157 | [5] 0.213 | [6] -0.392 | [8] -0.026

AP1B1 isoform 3 (UniProt Q10567)
inactive: [9] -0.033 | [2] -0.064 | [3] 0.027 | [10] 0.079 | [7] 0.128 | [5] -0.025 | [6] 0.284 | [8] 0.137

ANKRD13C (UniProt Q8N6S4)
inactive: [9] 0.075 | [3] -0.085 | [7] 0.118 | [6] -0.146 | [8] -0.309

ARID4B (UniProt Q4LE39)
inactive: [2] 0.253 | [5] 0.103

ARHGAP21 (UniProt Q5T5U3)
inactive: [1] -0.097 | [2] -0.025 | [4] -0.09 | [10] -0.057 | [5] 0.176 | [6] 0.081

APLF (UniProt Q8IW19)
inactive: [9] -0.489

ANKLE2 (UniProt Q86XL3)
inactive: [3] -0.083

ARHGEF10 (UniProt O15013)
inactive: [3] -0.377

AP5S1 (UniProt Q9NUS5)
inactive: [2] -0.209 | [5] -0.017

APC (UniProt P25054)
inactive: [9] 0.102 | [3] -0.08 | [7] -0.027 | [6] 0.127 | [8] -0.137

APOBEC3F (UniProt Q8IUX4)
inactive: [9] 0.152 | [7] -0.078 | [6] 0.324 | [8] -0.16

APOL1 isoform 2 (UniProt O14791)
inactive: [7] 0.101 | [8] 0.118

APP (UniProt P05067)
inactive: [1] -0.077 | [2] -0.022 | [4] 0.086 | [7] 0.197 | [5] 0.049 | [6] 0.052 | [8] -0.022

ANKS1A (UniProt Q92625)
inactive: [1] -0.064 | [9] -0.074 | [4] -0.02 | [7] 0.098 | [6] -0.096 | [8] -0.329

Reprinted from the listing (8 entries):
ANKLE2 (UniProt Q86XL3)
inactive: [3] -0.083

ARHGEF10 (UniProt O15013)
inactive: [3] -0.377

AP5S1 (UniProt Q9NUS5)
inactive: [2] -0.209 | [5] -0.017

APC (UniProt P25054)
inactive: [9] 0.102 | [3] -0.08 | [7] -0.027 | [6] 0.127 | [8] -0.137

APOBEC3F (UniProt Q8IUX4)
inactive: [9] 0.152 | [7] -0.078 | [6] 0.324 | [8] -0.16

APOL1 isoform 2 (UniProt O14791)
inactive: [7] 0.101 | [8] 0.118

APP (UniProt P05067)
inactive: [1] -0.077 | [2] -0.022 | [4] 0.086 | [7] 0.197 | [5] 0.049 | [6] 0.052 | [8] -0.022

ANKS1A (UniProt Q92625)
inactive: [1] -0.064 | [9] -0.074 | [4] -0.02 | [7] 0.098 | [6] -0.096 | [8] -0.329

Remaining list, next part.

APH1B (UniProt Q8WW43)
inactive: [1] -0.229 | [9] -0.195 | [4] -0.059 | [10] -0.015

ANKRD52 (UniProt Q8NB46)
inactive: [9] -0.025 | [2] -0.111 | [3] 0.148 | [7] 0.093 | [5] 0.037 | [6] 0.116 | [8] -0.029

ARHGAP22 isoform 2 (UniProt Q7Z5H3)
inactive: [1] 0 | [3] 0.081 | [4] -0.045 | [10] 0.116 | [7] 0.17 | [8] 0.033

APTX (UniProt Q7Z2E3)
inactive: [1] -0.075 | [9] -0.023 | [4] -0.089 | [10] 0.035 | [6] 0.056

ARFIP1 isoform 2 (UniProt P53367)
inactive: [1] 0.11 | [2] -0.147 | [4] 0.012 | [10] 0.331 | [5] -0.08 | [6] -0.062

AREL1 (UniProt O15033)
inactive: [9] -0.09

AREG (UniProt P15514)
inactive: [9] 0.12

APOC2 (UniProt P02655)
inactive: [2] 0.134 | [3] -0.046 | [10] -0.067 | [5] 0.067

ANLN (UniProt Q9NQW6)
inactive: [1] 0.077 | [2] -0.097 | [3] 0.126 | [4] -0.101 | [10] 0.137 | [7] 0.218 | [5] 0.1 | [6] -0.116 | [8] -0.093

ANGEL1 (UniProt Q9UNK9)
inactive: [3] -0.004

AP4B1 (UniProt Q9Y6B7)
inactive: [1] 0.092 | [9] 0.117 | [3] 0.021 | [4] 0.081 | [10] 0.133 | [7] -0.014 | [8] -0.117
